Results are given in words; binding and its absence hold for the method and conditions named. Binding seen in cells or lysates may run through a third protein. Some binding calls cover weakened binding; strength is not graded here. For some assays here: Tags and fused reporters may be left off the sequences shown.

Protein sequences, listed by entry. Tags and fused reporters are not part of them.
UniProt Q04206: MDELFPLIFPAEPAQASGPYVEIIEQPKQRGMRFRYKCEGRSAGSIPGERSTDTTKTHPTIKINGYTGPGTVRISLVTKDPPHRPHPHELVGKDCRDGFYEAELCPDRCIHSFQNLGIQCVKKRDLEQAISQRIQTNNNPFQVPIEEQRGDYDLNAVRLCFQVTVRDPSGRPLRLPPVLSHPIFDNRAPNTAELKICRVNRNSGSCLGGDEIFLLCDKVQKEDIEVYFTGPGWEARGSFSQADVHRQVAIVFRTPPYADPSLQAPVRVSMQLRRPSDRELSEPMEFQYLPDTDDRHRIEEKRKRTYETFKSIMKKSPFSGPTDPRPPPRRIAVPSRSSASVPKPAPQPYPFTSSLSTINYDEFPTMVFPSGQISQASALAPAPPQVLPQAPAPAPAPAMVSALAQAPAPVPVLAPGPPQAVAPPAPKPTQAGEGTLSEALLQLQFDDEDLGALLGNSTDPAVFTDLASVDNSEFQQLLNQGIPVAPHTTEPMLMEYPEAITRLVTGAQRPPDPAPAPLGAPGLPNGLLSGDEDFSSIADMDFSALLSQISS

The target of assay [1] is T1, Flag-tagged armadillo repeat-containing protein 4 (ARMC4)/outer dynein arm docking complex subunit 2 (ODAD2) (human) (UniProt Q5T2S8).
T1 sequence: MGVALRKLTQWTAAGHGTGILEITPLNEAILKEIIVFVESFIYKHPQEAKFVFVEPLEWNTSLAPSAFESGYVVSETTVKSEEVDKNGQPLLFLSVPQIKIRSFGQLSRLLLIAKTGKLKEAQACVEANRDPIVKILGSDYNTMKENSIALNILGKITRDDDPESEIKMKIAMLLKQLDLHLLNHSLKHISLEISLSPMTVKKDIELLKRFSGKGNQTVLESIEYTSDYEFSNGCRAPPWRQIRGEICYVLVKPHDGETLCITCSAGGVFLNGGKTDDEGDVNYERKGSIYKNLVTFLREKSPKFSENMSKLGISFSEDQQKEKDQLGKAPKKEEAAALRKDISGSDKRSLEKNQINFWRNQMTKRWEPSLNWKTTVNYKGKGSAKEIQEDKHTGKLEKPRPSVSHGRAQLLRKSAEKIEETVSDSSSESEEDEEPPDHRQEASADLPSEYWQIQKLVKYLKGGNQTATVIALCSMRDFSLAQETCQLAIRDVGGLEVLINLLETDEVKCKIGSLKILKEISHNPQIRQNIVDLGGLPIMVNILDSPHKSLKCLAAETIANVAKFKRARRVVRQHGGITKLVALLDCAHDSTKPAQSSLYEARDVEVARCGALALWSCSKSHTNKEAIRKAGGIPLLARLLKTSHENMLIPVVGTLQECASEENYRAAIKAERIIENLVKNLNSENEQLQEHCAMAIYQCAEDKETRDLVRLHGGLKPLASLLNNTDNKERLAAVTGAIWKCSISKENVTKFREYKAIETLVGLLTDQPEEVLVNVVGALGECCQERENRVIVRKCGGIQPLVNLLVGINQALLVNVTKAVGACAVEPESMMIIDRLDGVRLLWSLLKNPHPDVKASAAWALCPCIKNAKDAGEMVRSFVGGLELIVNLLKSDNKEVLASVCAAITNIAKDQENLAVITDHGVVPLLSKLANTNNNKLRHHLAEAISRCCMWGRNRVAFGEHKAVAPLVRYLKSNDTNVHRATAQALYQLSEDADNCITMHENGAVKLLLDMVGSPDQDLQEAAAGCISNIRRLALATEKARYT
In words: co-IP; HEK293 or HT29 cells overexpressing the Flag-tagged bait, treated or untreated with IL-1β for 1 h; lysis in 1% Triton X-100, 50 mM Tris-HCl pH 7.4, 150 mM NaCl, 1 mM EDTA; anti-Flag M2 affinity gel overnight at 4 °C; elution with Flag peptide; Western blot.

In assay [2] the target is Flag-tagged p65 subunit of NF-κB (UniProt Q04206). The description is as above.

For “p65 subunit of NF-κB (RelA), endogenous (from UniProt Q04206 1-551)”, the binding result in assay [1] was “binds”.

B1: armadillo repeat-containing protein 4 (ARMC4), endogenous (protein, UniProt Q5T2S8 1-1044)
chain: T1 sequence
As for B1, in assay [2], the binding entry is on record as “binds”.

Source of the values: article PMC8910849.
